{
  "source": "PubChem BioAssay AID485298",
  "about": "(National Center for Advancing Translational Sciences (NCATS), 2010)",
  "note": "Among all 320,000 compounds or so, about 740 (0.23%) were called active. This list was built around the results that the source calls inconclusive (neither active nor inactive); the mix of calls is not that of the screen. Calls come from the whole dose curve; as a rule, active = well fitted activation curve with a large enough effect; inconclusive = small, poorly fitted or top-dose-only effect; inactive = no such curve, though single readings can be large or run the other way. Potencies of inconclusive entries are doubtful fits and often do not repeat. Potency is the fitted concentration of half-maximal effect.",
  "data": [
    {"test": "qHTS Assay for Small Molecule Inhibitors of Mitochondrial Division or Activators of Mitochondrial Fusion; note: nearly all actives have a fitted effect of over 45% in size", "details": "S. cerevisiae fusion-defective mutant growth rescue, CellTiterGlo 48 h; series mostly up to 46.1 µM", "method_in_brief": "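Compounds are tested for their ability to restore growth of mitochondrial fusion-defective yeast strains at non-permissive 37C in YPEG medium over 48 hours. Viability is quantified by luciferase luminescence.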", "values": [
      {"smiles": "CC(C)NCC(O)COc1cccc2[nH]ccc12", "note": "(stereo not drawn)", "Potency": "inconclusive: 6.51 µM [activator, single point]"},
      {"smiles": "CC(C)CC1Nc2ncnc(N3CCOCC3)c2N(Cc2ccc(Br)cc2)C1=O", "note": "(stereo not drawn)", "Potency": "inactive"},
      {"smiles": "Cc1ccc(N(CC(=O)O)S(C)(=O)=O)cc1", "Potency": "inconclusive: 35.5 µM [activator, single point]"},
      {"smiles": "CCOC(=O)Cn1c2ccc(C)cc2c2nc(C)sc21", "Potency": "inactive"},
      {"smiles": "O=C(Nc1cccc(-c2csc(-c3ccccc3)n2)c1)c1cccs1", "Potency": "inconclusive: 15.8 µM [activator, partial curve]"},
      {"smiles": "Cc1ccc(NC(=S)NC2CCN(Cc3ccccc3)CC2)cc1C", "Potency": "inconclusive: 25.1 µM [activator, single point]"},
      {"smiles": "COC1OC(COC(=O)c2ccccc2)C(OC(=O)c2ccccc2)C1OC(=O)c1ccccc1", "note": "(stereo not drawn)", "Potency": "inconclusive: 0.562 µM [activator, full curve]"},
      {"smiles": "O=C(O)c1cccc2c1C(=O)c1ccc(-c3ccc(F)cc3OCc3ccccc3)cc1S2(=O)=O", "Potency": "inactive"},
      {"smiles": "COc1cccc(Nc2nc(-c3cccnc3)cs2)c1", "Potency": "inactive"},
      {"smiles": "COC(=O)C1=NNC2(c3ccc(C)cc3)C(=O)N(c3cccc(C)c3C)C(=O)C12", "note": "(stereo not drawn)", "Potency": "inconclusive: 6.31 µM [activator, partial curve]"},
      {"smiles": "CN(C)CCCNC(=O)C(=O)Nc1ccc2c(c1)N(S(=O)(=O)c1cccs1)CCC2", "Potency": "inactive"},
      {"smiles": "Cc1cccc(OCC(=O)Nc2ccccc2N2CCCC2)c1C", "Potency": "inconclusive: 35.5 µM [activator, single point]"},
      {"smiles": "Cc1c(C(=O)Nc2nonc2-c2ccc(F)cc2)oc2ccc(F)cc12", "Potency": "inconclusive: 3.16 µM [activator, single point]"},
      {"smiles": "CCN1CCN(C(=O)Cn2ncc3c([nH]c4ccc(C)cc43)c2=O)CC1", "Potency": "inconclusive: 25.1 µM [activator, single point]"},
      {"smiles": "CC(C)(C)c1ccc(C(=O)N2CCN(S(=O)(=O)c3ccc(Br)s3)CC2)cc1", "Potency": "inconclusive: 17.8 µM [activator, single point]"},
      {"smiles": "COc1cc(-c2nnc(-c3ccco3)o2)ccc1OCc1ccccc1", "Potency": "inconclusive: 15.8 µM [activator, single point]"},
      {"smiles": "O=C1CCCC2=C1C1(CCCC1)N=C(Nc1nc3ccccc3s1)N2", "Potency": "inactive"},
      {"smiles": "Cc1c(C(=O)NCc2ccc(F)cc2)c(-c2ccccc2)nn1-c1ccccc1", "Potency": "inactive"},
      {"smiles": "CCC(=O)OCCNc1cc(Sc2nccn2C)c2nonc2c1[N+](=O)[O-]", "Potency": "inactive"},
      {"smiles": "CC(NC(c1ccccc1)c1ccccc1)C(=O)N1CCCc2ccccc21", "note": "(stereo not drawn)", "Potency": "inconclusive: 11.2 µM [activator, partial curve]"},
      {"smiles": "Cc1cccc2cc(C(c3nnnn3Cc3ccccc3)N3CCCc4ccccc43)c(=O)[nH]c12", "note": "(stereo not drawn)", "Potency": "inactive"},
      {"smiles": "O=C(c1ccc(-c2ccccc2)cc1)C1CCCN(C(=O)Cn2cncn2)C1", "note": "(stereo not drawn)", "Potency": "inconclusive: 31.6 µM [activator, single point]"},
      {"smiles": "COc1ccc(CCn2nnnc2C2(c3ccc(C)cc3)CC2)cc1", "Potency": "active: 20.6 µM"},
      {"smiles": "CC(=O)Nc1cccc(Oc2ncnc3scc(-c4ccc(C)cc4)c23)c1", "Potency": "inconclusive: 22.4 µM [activator, partial curve, poor fit]"},
      {"smiles": "Cc1ccc(N2CCN(C3=NC(=O)/C(=C\\c4cccs4)S3)CC2)cc1", "Potency": "active: 22.4 µM"},
      {"smiles": "N#CNC(=Nc1ccc(F)cc1)SCc1ccccc1", "Potency": "inactive"},
      {"smiles": "CNC(=O)c1ccc(NC(=O)CC23CC4CC(CC(C4)C2)C3)cc1", "Potency": "inconclusive: 35.5 µM [activator, partial curve, poor fit]"},
      {"smiles": "O=c1[nH]c(=O)n(Cc2ccc(Oc3ccccc3)cc2)cc1Br", "Potency": "inconclusive: 11.2 µM [activator, partial curve]"},
      {"smiles": "Cc1c(C=O)c2ccccn2c1C(=O)c1ccc(Cl)c([N+](=O)[O-])c1", "Potency": "inactive"},
      {"smiles": "Cc1cccc(NC(=O)C2CCN(S(=O)(=O)c3c(C)noc3/C=C/c3ccco3)CC2)n1", "Potency": "inactive"},
      {"smiles": "Cc1ccc(-c2nc3cccnc3s2)cc1NS(=O)(=O)c1ccc2c(c1)OCCO2", "Potency": "inconclusive: 35.5 µM [activator, single point]"},
      {"smiles": "CC(c1ccccc1)n1c(Cn2ncc3ccccc3c2=O)n[nH]c1=S", "note": "(stereo not drawn)", "Potency": "inconclusive: 11.2 µM [activator, single point]"},
      {"smiles": "COc1cccc(-c2nn(-c3ccc(C)cc3)cc2C(=O)N(C)CC(=O)Nc2cccc(F)c2)c1", "Potency": "inconclusive: 12.6 µM [activator, single point]"},
      {"smiles": "Cn1c(N=NC(=O)c2ccccc2)c(O)c2ccccc21", "Potency": "inactive"},
      {"smiles": "Cc1ccc(C(=O)O/N=C(\\N)c2ccc(Br)cc2)cc1C", "Potency": "inconclusive: 12.6 µM [activator, partial curve]"},
      {"smiles": "O=C(CC1SC(=Nc2ccccc2)N(CCc2c[nH]c3ccccc23)C1=O)Nc1ccccc1F", "note": "(stereo not drawn)", "Potency": "inconclusive: 35.5 µM [activator, single point]"},
      {"smiles": "COc1cc(-c2nnc(SCc3c(F)cccc3Cl)o2)cc(OC)c1OC", "Potency": "inconclusive: 17.8 µM [activator, single point]"},
      {"smiles": "NC(=O)c1cc(-c2ccccc2)sc1NC(=O)CN1CCCCC1", "Potency": "inconclusive: 28.2 µM [activator, single point]"},
      {"smiles": "O=C(NCC(c1cccs1)N1CCOCC1)c1ccc(Cl)nc1", "note": "(stereo not drawn)", "Potency": "inactive"},
      {"smiles": "O=C(NC1CCSc2ccccc21)c1cccc(Cl)c1", "note": "(stereo not drawn)", "Potency": "inactive"},
      {"smiles": "N#C/C(=C\\c1ccc[nH]1)Sc1nc2ccccc2s1", "Potency": "inconclusive: 11.2 µM [activator, partial curve]"},
      {"smiles": "CCOC(=O)C/C(N)=N/NC(=O)c1ccc(Cl)cc1Cl", "Potency": "inconclusive: 14.1 µM [activator, partial curve]"},
      {"smiles": "C=CCN1C(=O)/C(=C/c2ccc(O)c(OC)c2)S/C1=N/c1nccs1", "Potency": "inconclusive: 3.55 µM [activator, full curve, poor fit]"},
      {"smiles": "CCOC(=O)c1sc(NC(=O)c2ccco2)c(C#N)c1C", "Potency": "inconclusive: 6.31 µM [activator, partial curve]"},
      {"smiles": "C/C=C\\C=C\\C(=O)N1CC2(CC(c3cccc(NC(=O)CC)c3)=NO2)C[C@H]1C(N)=O", "note": "(stereo partly drawn)", "Potency": "inconclusive: 3.16 µM [activator, full curve, poor fit]"},
      {"smiles": "CC(=O)c1c(C)oc2c1cc(O)c1ccccc12", "Potency": "inconclusive: 5.62 µM [activator, single point]"},
      {"smiles": "O=C1NC(c2cccs2)Nc2sc3c(c21)CCCC3", "note": "(stereo not drawn)", "Potency": "inactive"},
      {"smiles": "Cc1ccc(O)c(C(=O)c2cnc3c(c2)c(C)nn3-c2ccccc2)c1", "Potency": "inconclusive: 17.8 µM [activator, single point]"},
      {"smiles": "O=C(NC1CCCCC1)C(c1cccs1)N(C(=O)C(F)(F)F)c1ccccc1", "note": "(stereo not drawn)", "Potency": "inactive"},
      {"smiles": "COCC(C)n1c(C)cc(C(=O)CSc2cc(C)c3ccccc3n2)c1C", "note": "(stereo not drawn)", "Potency": "inconclusive: 12.6 µM [activator, partial curve]"},
      {"smiles": "COc1cc2c(cc1OC)CN(C(=O)c1ccco1)CC2", "Potency": "inactive"},
      {"smiles": "Cc1ccc(/C=C2/NC(=O)N(Cc3ccccc3)C2=O)o1", "Potency": "inactive"},
      {"smiles": "O=C(O)c1ccccc1N/N=C/c1cc(Br)cc(Br)c1O", "Potency": "inactive"},
      {"smiles": "COc1ccc(C(c2nnnn2C2CCCC2)N2CCN(c3ccccc3)CC2)cc1", "note": "(stereo not drawn)", "Potency": "inconclusive: 15.8 µM [activator, single point]"},
      {"smiles": "Cc1c(C(=O)Nc2ccc3c(c2)OCCO3)sc2ncnc(N3CCCCC3C)c12", "note": "(stereo not drawn)", "Potency": "active: 11.2 µM"},
      {"smiles": "O=C(COC(=O)c1ccc(O)cc1O)c1ccc(Cl)cc1", "Potency": "inconclusive: 15.8 µM [activator, single point]"},
      {"smiles": "CC(C)(C)C(=O)Nc1ccccc1C(=O)Nc1cc(Cl)ccc1Cl", "Potency": "inactive"},
      {"smiles": "CCCCN(CC)c1nc(-c2ccncc2)nc2ccccc12", "Potency": "active: 17.8 µM"},
      {"smiles": "O=C(Nc1ccc(Cl)c(S(=O)(=O)N2CCOCC2)c1)c1ccccc1-c1ccc(C(F)(F)F)cc1", "Potency": "inconclusive: 15.8 µM [activator, partial curve]"},
      {"smiles": "O=C(COc1ccc(Br)cc1Br)NC(=S)N1CCCc2ccccc21", "Potency": "inactive"},
      {"smiles": "O=C(Nc1ccc(Cl)c(Cl)c1)c1cccnc1", "Potency": "inactive"},
      {"smiles": "COc1ccccc1C(=O)NCC(c1ccco1)N1CCc2ccccc21", "note": "(stereo not drawn)", "Potency": "inconclusive: 15.8 µM [activator, single point]"},
      {"smiles": "Cc1ccc2nc(C)c(CN3CCN(c4ccc([N+](=O)[O-])cc4Cl)CC3)n2c1", "Potency": "inactive"},
      {"smiles": "CCCn1nc(NC(=O)CC)c2cc3cccc(C)c3nc21", "Potency": "inconclusive: 12.6 µM [activator, partial curve]"},
      {"smiles": "COC(=O)C1=C(C)N(Cc2ccccc2)C(=S)N[C@H]1c1ccc(Br)cc1", "Potency": "inconclusive: 31.6 µM [activator, single point]"},
      {"smiles": "CCC(CC)c1nnc(NC(=O)c2cc(C(=O)OC)cc([N+](=O)[O-])c2)s1", "Potency": "inconclusive: 12.6 µM [activator, partial curve]"},
      {"smiles": "CCOC(=O)c1sc(NC(=O)c2ccc(Br)o2)cc1C", "Potency": "inactive"},
      {"smiles": "CC(C)OC(=O)/C(=C\\c1ccc2c(c1)c1ccccc1n2C)NC(=O)c1ccccc1", "Potency": "inconclusive: 31.6 µM [activator, single point]"},
      {"smiles": "CCc1ccccc1NC(=O)c1cccc(Oc2ccc([N+](=O)[O-])cc2Cl)c1", "Potency": "inconclusive: 11.2 µM [activator, partial curve]"},
      {"smiles": "CC(=O)Nc1ccc(S(=O)(=O)Nc2ccccc2C(=O)NCc2cccnc2)cc1", "Potency": "active: 10 µM"},
      {"smiles": "CCCN(CC1CC1)c1nc(C)nc(Nc2c(Cl)cc(Cl)cc2Cl)c1Cl", "Potency": "active: 14.6 µM"},
      {"smiles": "CC(=O)N1CC[n+]2c(-c3ccc(Cl)cc3)csc21", "Potency": "inconclusive: 14.1 µM [activator, single point]"},
      {"smiles": "Oc1c(Cl)cc(CN2CCOCC2)c2cccnc12", "Potency": "inconclusive: 35.5 µM [activator, single point]"}
    ]}
  ]
}
